Reference: the supplement of paper PMC12823440, “Inhibitors supercharge kinase turnover through native proteolytic circuits” (Nature, 2025)
The list shows a part of the results. The calls rarely recur for the same compound in another form.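 In K562 cells expressing nanoluciferase-fused kinases, luminescence was recorded at 4 h intervals between 2 and 18 h, normalized as percent of control with DMSO at 100% and a positive control at 0%. A significant (2 sigma) signal drop marks a time point as decreased. The authors' rule for a hit is not shown and takes in more than the number of time points.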

Amino acid sequences for entries named in this document (tags omitted). A change or cut given only in a name is not applied to a line headed by its entry.
UniProt Q9Y616: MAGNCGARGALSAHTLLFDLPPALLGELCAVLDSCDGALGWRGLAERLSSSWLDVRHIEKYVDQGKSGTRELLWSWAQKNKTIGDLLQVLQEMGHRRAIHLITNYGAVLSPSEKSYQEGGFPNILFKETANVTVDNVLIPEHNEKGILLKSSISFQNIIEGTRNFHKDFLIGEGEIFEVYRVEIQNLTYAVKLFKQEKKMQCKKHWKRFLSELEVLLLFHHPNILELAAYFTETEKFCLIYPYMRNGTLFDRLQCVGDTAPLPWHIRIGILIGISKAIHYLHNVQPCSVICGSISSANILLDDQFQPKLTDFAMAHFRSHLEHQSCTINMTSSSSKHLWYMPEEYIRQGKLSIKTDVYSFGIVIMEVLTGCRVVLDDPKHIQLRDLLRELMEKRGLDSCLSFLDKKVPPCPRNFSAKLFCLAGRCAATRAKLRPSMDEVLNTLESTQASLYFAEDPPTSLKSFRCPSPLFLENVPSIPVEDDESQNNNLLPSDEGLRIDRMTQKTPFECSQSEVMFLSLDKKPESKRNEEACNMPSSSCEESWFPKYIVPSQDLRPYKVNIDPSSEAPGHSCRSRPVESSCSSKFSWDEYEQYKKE
UniProt P23458: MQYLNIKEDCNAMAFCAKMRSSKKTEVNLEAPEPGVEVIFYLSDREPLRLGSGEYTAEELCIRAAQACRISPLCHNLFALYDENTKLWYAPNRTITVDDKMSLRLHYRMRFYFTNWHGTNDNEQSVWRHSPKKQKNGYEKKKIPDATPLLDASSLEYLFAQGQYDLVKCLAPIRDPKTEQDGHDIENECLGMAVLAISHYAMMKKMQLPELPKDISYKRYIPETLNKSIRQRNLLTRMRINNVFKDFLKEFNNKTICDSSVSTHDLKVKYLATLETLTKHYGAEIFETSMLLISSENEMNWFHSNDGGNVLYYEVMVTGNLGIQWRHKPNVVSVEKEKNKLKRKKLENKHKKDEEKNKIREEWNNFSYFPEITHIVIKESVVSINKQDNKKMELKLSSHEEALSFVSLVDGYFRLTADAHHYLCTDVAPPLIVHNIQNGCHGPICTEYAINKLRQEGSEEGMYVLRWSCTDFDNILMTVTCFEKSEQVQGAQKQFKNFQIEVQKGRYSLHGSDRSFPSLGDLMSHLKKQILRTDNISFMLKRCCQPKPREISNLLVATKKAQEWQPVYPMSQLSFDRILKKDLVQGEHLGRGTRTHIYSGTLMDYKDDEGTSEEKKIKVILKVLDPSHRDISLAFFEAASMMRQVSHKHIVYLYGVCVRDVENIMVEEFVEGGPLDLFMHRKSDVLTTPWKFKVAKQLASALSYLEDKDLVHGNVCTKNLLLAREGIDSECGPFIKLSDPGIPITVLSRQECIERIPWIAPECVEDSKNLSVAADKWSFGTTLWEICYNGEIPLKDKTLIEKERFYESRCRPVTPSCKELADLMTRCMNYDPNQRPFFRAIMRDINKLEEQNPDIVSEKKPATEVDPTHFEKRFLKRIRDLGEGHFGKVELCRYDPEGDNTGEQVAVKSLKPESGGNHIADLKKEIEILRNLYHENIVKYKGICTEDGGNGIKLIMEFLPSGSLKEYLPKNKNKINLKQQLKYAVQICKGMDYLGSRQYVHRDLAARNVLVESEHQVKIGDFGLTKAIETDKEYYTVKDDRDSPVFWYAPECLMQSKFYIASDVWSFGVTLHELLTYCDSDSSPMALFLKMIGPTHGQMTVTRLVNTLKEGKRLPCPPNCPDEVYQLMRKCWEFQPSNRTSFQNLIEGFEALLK
UniProt P06239: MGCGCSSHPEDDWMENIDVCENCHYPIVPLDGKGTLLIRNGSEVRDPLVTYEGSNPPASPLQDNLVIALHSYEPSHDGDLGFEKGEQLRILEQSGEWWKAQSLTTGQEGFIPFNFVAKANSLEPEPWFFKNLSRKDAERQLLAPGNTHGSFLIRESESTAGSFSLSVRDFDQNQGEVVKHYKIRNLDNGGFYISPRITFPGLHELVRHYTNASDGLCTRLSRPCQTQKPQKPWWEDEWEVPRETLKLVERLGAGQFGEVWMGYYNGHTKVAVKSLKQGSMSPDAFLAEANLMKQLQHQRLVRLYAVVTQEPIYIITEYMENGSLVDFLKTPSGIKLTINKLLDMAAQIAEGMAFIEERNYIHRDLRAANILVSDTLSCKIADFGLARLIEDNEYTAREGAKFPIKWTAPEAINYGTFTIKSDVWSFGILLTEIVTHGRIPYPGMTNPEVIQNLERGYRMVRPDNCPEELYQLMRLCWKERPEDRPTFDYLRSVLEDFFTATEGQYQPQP
UniProt P53667: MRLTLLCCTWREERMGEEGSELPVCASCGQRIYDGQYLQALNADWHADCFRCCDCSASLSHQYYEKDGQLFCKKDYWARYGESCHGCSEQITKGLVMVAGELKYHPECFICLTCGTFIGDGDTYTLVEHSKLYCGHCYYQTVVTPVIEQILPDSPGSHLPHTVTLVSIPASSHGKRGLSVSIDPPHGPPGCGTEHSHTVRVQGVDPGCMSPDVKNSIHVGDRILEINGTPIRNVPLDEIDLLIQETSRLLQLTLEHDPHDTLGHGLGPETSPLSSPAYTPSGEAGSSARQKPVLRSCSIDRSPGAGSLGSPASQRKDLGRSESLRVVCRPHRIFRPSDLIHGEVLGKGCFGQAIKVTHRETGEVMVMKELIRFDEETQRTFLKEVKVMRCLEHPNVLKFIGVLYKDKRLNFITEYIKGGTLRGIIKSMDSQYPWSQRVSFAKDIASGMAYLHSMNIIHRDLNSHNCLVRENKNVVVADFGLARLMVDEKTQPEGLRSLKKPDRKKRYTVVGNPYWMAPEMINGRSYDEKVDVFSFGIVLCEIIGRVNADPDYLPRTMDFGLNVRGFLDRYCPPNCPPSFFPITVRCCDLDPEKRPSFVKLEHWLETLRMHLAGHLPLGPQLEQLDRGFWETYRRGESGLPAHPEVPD
UniProt P53671: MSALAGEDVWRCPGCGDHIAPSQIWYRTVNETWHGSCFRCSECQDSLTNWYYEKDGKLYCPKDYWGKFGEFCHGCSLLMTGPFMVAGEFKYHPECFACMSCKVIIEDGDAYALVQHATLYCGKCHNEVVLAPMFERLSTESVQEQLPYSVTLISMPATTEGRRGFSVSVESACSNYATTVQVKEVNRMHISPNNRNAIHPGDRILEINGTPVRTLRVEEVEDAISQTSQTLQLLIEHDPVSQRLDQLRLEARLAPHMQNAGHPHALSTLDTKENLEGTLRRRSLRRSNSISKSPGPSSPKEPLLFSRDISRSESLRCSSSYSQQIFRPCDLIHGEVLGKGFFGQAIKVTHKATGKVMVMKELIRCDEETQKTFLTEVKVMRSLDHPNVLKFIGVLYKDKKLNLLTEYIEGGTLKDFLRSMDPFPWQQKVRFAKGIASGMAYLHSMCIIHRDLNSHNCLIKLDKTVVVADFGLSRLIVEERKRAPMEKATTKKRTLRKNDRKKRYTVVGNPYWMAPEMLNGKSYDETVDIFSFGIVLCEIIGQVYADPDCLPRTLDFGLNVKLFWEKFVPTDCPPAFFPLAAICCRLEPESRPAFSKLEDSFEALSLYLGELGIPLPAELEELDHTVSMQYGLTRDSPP
UniProt Q8IWU2: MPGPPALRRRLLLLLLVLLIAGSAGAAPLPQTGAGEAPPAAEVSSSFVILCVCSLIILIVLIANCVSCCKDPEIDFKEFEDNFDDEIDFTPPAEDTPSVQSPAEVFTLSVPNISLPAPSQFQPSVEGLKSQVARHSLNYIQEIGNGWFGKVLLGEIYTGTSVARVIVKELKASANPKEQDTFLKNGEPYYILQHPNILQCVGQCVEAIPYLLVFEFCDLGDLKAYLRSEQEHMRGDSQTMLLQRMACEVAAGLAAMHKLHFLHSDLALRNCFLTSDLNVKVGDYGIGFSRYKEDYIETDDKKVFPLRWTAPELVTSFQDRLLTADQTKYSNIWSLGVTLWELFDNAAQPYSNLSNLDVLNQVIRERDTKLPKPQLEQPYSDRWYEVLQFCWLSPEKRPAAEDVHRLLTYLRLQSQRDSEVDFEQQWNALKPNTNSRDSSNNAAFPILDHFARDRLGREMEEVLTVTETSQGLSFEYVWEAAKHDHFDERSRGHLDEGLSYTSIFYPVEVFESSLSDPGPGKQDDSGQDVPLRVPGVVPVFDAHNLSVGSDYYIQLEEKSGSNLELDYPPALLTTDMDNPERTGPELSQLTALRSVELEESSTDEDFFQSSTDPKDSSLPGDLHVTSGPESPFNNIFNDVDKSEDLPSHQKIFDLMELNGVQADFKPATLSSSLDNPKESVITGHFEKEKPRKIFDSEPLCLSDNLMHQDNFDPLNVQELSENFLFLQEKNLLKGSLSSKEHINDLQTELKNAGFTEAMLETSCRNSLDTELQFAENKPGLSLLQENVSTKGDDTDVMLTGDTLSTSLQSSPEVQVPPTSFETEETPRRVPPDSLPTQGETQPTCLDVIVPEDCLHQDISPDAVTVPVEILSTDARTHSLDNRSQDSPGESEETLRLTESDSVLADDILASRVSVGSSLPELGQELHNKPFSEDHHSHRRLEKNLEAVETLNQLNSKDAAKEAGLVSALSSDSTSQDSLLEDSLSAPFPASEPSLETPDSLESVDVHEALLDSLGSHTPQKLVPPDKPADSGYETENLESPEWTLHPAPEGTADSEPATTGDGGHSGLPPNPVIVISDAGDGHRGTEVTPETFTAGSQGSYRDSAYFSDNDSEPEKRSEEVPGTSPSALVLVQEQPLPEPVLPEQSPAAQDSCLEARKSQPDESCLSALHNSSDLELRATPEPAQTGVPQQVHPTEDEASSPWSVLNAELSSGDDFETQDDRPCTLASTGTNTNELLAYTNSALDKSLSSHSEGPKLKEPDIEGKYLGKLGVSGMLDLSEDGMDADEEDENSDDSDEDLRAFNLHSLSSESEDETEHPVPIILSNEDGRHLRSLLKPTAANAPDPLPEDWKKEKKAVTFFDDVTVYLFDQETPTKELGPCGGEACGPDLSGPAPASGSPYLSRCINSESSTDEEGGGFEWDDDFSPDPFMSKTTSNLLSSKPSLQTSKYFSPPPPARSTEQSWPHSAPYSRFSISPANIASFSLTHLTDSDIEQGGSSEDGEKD
UniProt P07948: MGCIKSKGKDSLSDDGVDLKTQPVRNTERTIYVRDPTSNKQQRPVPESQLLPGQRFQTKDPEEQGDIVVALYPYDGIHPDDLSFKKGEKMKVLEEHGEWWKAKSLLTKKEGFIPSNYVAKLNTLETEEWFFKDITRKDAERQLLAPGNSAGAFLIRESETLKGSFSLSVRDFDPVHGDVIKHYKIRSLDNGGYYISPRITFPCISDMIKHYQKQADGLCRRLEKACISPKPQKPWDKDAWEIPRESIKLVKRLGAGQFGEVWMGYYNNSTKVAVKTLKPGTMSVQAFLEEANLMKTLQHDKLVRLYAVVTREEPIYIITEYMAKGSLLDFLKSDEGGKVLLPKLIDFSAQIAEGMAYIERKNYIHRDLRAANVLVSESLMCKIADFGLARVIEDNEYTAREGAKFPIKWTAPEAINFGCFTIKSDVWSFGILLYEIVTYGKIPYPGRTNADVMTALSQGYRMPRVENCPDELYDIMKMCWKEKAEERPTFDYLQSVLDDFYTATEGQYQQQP
UniProt Q12851: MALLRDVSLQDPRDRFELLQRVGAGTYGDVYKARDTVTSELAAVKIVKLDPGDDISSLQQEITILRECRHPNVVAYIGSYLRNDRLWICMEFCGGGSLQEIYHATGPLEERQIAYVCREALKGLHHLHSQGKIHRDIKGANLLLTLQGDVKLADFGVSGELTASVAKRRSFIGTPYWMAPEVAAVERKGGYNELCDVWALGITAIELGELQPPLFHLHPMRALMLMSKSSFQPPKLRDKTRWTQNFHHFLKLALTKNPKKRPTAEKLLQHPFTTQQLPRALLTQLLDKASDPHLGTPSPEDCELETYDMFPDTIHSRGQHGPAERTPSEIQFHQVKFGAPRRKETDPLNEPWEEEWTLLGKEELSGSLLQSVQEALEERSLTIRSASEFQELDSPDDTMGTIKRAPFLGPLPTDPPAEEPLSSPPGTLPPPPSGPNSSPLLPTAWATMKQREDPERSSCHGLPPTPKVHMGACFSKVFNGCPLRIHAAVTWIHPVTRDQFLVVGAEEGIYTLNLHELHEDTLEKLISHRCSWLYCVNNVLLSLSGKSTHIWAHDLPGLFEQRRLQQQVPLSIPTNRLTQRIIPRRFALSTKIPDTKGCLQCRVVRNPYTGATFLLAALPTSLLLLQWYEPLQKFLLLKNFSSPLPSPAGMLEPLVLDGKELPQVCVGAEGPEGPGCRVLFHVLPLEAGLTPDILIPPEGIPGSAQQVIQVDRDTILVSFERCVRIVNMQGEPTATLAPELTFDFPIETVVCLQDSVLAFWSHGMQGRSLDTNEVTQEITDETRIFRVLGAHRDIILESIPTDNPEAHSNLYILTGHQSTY

Columns and labels:
Test in all cases: kinase-Nluc reporter destabilization hit call (1 = scored as downregulated) (binary); higher = compound decreases kinase abundance
Details in all cases: K562; 2-18 h
IRAK3 = IRAK3 (UniProt Q9Y616)
JAK1 = JAK1 (UniProt P23458)
LCK = LCK (UniProt P06239)
LIMK1 = LIMK1 (UniProt P53667)
LIMK2 = LIMK2 (UniProt P53671)
LMTK2 = LMTK2 (UniProt Q8IWU2)
LYN = LYN (UniProt P07948)
MAP2K1 = MAP2K1 (UniProt Q02750)
MAP2K2 = MAP2K2 (UniProt P36507)
MAP4K2 = MAP4K2 (UniProt Q12851)

Measured: kinase-Nluc reporter destabilization hit call

O=C1NC(=O)C(c2cnc3ccccn23)=C1c1cn2c3c(cc(F)cc13)CN(C(=O)N1CCCCC1)CC2 (2.5 µM)
inactive: IRAK3 = 0 | JAK1 = 0 | LCK 0 | LIMK1 = 0 | LIMK2 = 0 | LMTK2 = 0 | LYN 0 | MAP2K1 = 0 | MAP2K2 = 0 | MAP4K2 = 0

Cn1cc(-c2ccc(F)c(C(F)(F)F)c2)nc1C1CCN(c2ncnc3[nH]ncc23)CC1 (10 µM)
inactive: IRAK3 = 0 | JAK1 = 0 | LCK 0 | LIMK1 = 0 | LIMK2 = 0 | LMTK2 = 0 | LYN 0 | MAP2K1 = 0 | MAP2K2 = 0 | MAP4K2 = 0

NS(=O)(=O)c1ccc(N2N=C(c3ccccc3)CC2c2ccccc2)cc1 (stereo not given) (10 µM)
inactive: IRAK3 = 0 | JAK1 = 0 | LCK 0 | LIMK1 = 0 | LIMK2 = 0 | LMTK2 = 0 | LYN 0 | MAP2K1 = 0 | MAP2K2 = 0 | MAP4K2 = 0
